The values that follow come from the supplement of paper PMC7666118.

Amino acid sequences for entries named in this document (tags omitted). A change or cut given only in a name is not applied to a line headed by its entry.
UniProt Q8NDV7: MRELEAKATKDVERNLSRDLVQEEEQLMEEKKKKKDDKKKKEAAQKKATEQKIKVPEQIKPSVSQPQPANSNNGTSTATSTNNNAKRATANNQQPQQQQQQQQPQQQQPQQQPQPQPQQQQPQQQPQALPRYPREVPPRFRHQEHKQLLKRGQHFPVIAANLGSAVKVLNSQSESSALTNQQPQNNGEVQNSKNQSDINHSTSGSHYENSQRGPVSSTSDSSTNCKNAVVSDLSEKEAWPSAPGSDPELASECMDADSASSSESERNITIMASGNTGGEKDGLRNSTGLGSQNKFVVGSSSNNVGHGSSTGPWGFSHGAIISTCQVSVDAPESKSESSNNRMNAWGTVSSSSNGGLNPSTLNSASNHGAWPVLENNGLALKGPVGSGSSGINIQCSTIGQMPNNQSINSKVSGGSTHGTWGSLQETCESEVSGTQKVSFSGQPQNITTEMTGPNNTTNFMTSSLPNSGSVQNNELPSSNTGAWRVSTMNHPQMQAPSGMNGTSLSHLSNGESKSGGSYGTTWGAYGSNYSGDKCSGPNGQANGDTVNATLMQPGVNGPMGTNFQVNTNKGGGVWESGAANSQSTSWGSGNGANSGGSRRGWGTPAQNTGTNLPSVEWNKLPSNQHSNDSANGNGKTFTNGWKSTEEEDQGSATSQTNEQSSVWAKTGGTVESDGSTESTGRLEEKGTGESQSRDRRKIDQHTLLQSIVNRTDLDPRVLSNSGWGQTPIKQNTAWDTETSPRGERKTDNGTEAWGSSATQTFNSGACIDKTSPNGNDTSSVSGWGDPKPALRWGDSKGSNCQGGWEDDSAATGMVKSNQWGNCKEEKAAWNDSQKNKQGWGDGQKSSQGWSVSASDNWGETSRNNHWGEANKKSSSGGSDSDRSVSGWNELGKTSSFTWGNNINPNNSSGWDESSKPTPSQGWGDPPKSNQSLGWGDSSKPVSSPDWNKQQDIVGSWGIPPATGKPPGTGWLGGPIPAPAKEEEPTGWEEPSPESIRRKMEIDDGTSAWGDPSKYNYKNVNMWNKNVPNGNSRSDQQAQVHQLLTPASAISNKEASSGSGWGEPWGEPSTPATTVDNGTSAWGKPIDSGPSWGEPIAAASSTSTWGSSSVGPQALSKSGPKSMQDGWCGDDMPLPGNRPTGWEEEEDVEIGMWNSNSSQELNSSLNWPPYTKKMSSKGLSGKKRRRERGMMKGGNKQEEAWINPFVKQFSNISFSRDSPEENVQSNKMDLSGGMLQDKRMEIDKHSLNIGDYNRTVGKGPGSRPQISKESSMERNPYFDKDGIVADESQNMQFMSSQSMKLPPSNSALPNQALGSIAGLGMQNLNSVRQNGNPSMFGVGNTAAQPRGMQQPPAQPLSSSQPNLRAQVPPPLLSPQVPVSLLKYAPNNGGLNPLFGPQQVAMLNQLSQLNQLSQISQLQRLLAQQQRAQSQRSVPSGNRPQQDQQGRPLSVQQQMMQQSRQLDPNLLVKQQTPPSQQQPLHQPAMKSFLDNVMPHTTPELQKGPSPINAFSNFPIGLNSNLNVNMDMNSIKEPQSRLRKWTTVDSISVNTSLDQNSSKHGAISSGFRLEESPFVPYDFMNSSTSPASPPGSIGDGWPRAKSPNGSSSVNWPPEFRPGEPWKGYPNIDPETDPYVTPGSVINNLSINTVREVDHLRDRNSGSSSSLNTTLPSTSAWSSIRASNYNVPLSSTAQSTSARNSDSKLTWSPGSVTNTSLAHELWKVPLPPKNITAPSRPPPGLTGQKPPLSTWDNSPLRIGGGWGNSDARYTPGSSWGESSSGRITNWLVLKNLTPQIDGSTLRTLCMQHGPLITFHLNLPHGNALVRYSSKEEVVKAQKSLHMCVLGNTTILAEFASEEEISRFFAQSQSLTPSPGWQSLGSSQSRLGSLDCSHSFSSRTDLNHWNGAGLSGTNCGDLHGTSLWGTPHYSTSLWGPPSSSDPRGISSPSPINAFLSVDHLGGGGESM
UniProt P40222: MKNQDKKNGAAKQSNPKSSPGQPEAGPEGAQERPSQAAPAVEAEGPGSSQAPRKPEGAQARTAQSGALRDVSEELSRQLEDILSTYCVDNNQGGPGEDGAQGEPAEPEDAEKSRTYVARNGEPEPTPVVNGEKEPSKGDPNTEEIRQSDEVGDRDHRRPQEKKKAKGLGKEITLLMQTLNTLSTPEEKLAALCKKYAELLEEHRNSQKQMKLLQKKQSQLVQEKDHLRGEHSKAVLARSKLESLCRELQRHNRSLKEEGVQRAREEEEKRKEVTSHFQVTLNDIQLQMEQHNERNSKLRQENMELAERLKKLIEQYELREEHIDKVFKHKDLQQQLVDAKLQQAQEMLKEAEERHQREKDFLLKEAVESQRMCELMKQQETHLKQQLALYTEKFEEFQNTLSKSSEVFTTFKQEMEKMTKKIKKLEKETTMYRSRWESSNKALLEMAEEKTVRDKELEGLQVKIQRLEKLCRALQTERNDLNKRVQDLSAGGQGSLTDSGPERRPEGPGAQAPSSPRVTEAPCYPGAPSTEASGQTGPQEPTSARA
UniProt Q96FV9: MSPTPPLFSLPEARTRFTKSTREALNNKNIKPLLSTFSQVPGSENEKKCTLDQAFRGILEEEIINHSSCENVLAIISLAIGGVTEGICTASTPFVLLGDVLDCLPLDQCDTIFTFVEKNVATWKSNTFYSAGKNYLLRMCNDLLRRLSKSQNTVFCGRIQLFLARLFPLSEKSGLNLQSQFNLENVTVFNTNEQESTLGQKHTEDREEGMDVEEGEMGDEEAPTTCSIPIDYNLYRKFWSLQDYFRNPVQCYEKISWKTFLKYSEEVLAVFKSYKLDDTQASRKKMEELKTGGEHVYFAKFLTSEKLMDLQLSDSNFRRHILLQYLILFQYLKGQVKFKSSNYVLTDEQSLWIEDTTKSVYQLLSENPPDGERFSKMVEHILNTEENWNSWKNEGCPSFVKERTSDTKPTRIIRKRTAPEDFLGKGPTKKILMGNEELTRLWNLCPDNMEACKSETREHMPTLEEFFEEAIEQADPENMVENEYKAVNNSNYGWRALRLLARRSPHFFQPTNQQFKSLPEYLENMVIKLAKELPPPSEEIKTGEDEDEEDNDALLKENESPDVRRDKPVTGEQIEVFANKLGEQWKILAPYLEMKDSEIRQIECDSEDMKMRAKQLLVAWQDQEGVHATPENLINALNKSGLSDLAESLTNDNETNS
UniProt Q96Q05, whole entry: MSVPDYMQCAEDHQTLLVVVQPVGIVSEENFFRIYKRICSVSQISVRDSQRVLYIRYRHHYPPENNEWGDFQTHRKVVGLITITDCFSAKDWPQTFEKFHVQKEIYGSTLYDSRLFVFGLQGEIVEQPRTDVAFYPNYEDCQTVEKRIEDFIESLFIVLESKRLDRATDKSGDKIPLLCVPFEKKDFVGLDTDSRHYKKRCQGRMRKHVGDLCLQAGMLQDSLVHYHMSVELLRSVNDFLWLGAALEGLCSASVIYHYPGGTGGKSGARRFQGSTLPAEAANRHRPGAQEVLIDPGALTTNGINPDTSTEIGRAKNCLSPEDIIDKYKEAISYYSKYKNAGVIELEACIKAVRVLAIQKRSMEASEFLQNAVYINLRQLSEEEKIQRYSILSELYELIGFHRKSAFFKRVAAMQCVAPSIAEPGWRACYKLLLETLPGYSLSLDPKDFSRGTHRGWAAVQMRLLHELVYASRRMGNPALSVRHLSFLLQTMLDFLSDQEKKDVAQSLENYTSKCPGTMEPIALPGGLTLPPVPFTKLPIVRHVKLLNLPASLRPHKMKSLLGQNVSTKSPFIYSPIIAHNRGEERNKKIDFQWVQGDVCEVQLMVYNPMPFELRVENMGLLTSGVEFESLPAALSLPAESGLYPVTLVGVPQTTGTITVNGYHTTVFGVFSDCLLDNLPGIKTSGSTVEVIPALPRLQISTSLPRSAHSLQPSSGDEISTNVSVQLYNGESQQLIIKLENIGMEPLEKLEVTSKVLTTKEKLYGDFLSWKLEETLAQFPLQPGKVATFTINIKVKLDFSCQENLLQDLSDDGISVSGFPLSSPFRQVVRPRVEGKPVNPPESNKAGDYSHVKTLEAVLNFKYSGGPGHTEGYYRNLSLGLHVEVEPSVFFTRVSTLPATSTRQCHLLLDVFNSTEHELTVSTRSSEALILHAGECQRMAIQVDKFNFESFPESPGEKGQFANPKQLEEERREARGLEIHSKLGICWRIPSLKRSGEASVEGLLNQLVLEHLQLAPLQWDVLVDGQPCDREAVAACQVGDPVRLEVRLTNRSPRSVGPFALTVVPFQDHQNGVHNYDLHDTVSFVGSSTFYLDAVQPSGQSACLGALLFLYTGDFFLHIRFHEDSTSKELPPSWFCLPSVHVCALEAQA
UniProt P19532: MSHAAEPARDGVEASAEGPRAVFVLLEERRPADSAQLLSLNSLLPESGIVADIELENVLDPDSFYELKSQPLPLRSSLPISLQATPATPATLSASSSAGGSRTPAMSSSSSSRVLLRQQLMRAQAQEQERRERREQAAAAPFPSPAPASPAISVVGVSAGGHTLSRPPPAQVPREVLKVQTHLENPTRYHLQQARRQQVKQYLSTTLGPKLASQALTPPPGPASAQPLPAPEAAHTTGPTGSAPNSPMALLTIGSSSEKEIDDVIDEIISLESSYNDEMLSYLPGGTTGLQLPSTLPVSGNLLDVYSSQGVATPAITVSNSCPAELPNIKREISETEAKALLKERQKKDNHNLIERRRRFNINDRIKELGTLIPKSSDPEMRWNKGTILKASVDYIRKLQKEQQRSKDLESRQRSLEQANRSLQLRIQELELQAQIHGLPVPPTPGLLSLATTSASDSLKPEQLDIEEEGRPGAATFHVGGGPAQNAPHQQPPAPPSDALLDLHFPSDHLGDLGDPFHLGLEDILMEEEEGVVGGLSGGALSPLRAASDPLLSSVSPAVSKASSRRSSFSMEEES
UniProt O43396: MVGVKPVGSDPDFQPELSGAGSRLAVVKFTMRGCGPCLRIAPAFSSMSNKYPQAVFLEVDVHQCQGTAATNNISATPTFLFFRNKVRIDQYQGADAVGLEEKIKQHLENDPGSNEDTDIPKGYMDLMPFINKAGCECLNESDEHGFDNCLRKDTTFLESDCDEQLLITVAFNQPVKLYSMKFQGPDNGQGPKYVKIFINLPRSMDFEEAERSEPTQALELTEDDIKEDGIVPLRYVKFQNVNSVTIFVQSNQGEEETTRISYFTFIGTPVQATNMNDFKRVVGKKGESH
UniProt Q3LXA3: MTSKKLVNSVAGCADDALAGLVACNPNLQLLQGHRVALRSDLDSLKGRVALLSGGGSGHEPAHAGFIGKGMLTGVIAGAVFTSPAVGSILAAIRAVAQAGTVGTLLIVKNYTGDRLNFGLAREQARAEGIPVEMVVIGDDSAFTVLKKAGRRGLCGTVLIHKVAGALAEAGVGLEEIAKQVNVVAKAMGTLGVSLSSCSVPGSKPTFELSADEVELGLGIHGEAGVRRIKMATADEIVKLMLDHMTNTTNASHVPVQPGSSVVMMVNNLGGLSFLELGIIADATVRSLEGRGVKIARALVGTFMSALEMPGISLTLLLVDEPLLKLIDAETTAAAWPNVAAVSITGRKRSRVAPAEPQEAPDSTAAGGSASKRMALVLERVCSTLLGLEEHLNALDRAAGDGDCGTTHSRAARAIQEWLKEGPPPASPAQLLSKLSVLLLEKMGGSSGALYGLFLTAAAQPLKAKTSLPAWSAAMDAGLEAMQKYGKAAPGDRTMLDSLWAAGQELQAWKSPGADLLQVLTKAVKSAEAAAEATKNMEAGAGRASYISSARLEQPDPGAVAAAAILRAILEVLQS

The other results are listed elsewhere or left out.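 The calls were made as follows: active = dose-dependent thermal stabilisation significant by F-test of dose-response against flat model at 10% FDR; inactive = not significant.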

Compound in this assay: Nc1nc2c(ncn2[C@@H]2O[C@H](COP(=O)(O)OP(=O)(O)OP(=O)(O)O)[C@@H](O)[C@H]2O)c(=O)[nH]1
The experiment in a line: dose-dependent thermal stabilisation call (2D-TPP, DLPTP, 10% FDR) (binary (1 = stabilised)); higher = stabilised by the compound. The settings on record: system: Jurkat gel-filtered lysate; concentration range 1-500 µM.
With TNRC6A (UniProt Q8NDV7), the “dose-dependent thermal stabilisation call” value was inactive: 0.
Regarding THOC2 (UniProt Q8NI27), the “dose-dependent thermal stabilisation call” value was inactive: 0.
For TXLNA (UniProt P40222), the “dose-dependent thermal stabilisation call” value was inactive: 0.
On to THOC1 (UniProt Q96FV9), for which the “dose-dependent thermal stabilisation call” value was active: 1.
The value for TRAPPC9 (UniProt Q96Q05) was active: 1; that for TAOK3 (UniProt Q9H2K8) was active: 1.
Turning to TFE3 (UniProt P19532), the “dose-dependent thermal stabilisation call” value is inactive: 0.
As for TXNL1 (UniProt O43396), the figure is active: 1.
TKFC (UniProt Q3LXA3): the “dose-dependent thermal stabilisation call” value is inactive: 0.
